Literature values as cited in patent US10022416B2 (LAILA PHARMACEUTICALS PVT. LTD., priority 2012, dated 2018).
Some results were stated once for a whole list of compounds, not compound by compound.

Settings: background statement

bioavailability	SMILES
less than 1%	Oc1ccc(C=Cc2cc(O)cc(O)c2)cc1 [resveratrol]
less than 1%	COc1cc(/C=C/C(=O)CC(=O)/C=C/c2ccc(O)c(OC)c2)ccc1O [curcumin]
